# Experimental data reported in article PMC8384837.
# Where a chain is given by its changes, count along the chain named. Some of the results follow. For some of these results: At the low end of the ranking the order means little.
# How the values were obtained:
# Conditions in all cases: yeast three-hybrid, YBZ-1, SC-Leu-His + 0.5 mM 3-AT, 4 days
# [1] = molecular target: T1, PUM1 PUF domain R3-GVE C935G + R936V + Q939E (UniProt Q14671)
# T1 sequence: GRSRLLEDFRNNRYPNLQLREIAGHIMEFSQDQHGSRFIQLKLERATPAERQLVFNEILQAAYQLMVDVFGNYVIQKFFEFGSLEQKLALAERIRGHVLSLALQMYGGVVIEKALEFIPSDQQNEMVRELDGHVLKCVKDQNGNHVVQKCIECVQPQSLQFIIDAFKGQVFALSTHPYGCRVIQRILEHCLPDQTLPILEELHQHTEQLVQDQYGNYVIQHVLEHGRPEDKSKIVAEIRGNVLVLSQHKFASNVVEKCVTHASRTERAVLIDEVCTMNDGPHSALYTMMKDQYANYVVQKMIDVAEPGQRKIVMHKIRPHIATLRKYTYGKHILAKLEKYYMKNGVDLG
# [2] = molecular target: T2, PUM1 PUF domain R3-GWA C935G + R936W + Q939A (UniProt Q14671)
# T2 sequence: T1 sequence with V109W, E112A
# [3] = molecular target: T3, PUM1 PUF domain R3-GWD C935G + R936W + Q939D (UniProt Q14671)
# T3 sequence: T1 sequence with V109W, E112D
# [4] = molecular target: T4, PUM1 PUF domain R3-GWG C935G + R936W + Q939G (UniProt Q14671)
# T4 sequence: T1 sequence with V109W, E112G
# [5] = molecular target: T5, PUM1 PUF domain R3-GWI C935G + R936W + Q939I (UniProt Q14671)
# T5 sequence: T1 sequence with V109W, E112I
# [6] = molecular target: T6, PUM1 PUF domain R3-GWP C935G + R936W + Q939P (UniProt Q14671)
# T6 sequence: T1 sequence with V109W, E112P
# [7] = molecular target: T7, PUM1 PUF domain R3-IFR C935I + R936F + Q939R (Homo sapiens) (UniProt Q14671)
# T7 sequence: T1 sequence with G108I, V109F, E112R
# [8] = molecular target: T8, PUM1 PUF domain R3-IRG C935I + Q939G (UniProt Q14671)
# T8 sequence: T1 sequence with G108I, V109R, E112G
# [9] = molecular target: T9, PUM1 PUF domain R3-IRV C935I + Q939V (UniProt Q14671)
# T9 sequence: T1 sequence with G108I, V109R, E112V
# [10] = molecular target: T10, PUM1 PUF domain R3-IWR C935I + R936W + Q939R (Homo sapiens) (UniProt Q14671)
# T10 sequence: T1 sequence with G108I, V109W, E112R
# [11] = molecular target: T11, PUM1 PUF domain R3-IYR C935I + R936Y + Q939R (Homo sapiens) (UniProt Q14671)
# T11 sequence: T1 sequence with G108I, V109Y, E112R
# [12] = molecular target: T12, PUM1 PUF domain R3-IYV C935I + R936Y + Q939V (UniProt Q14671)
# T12 sequence: T1 sequence with G108I, V109Y, E112V
# [13] = molecular target: T13, PUM1 PUF domain R3-KPG C935K + R936P + Q939G (UniProt Q14671)
# T13 sequence: T1 sequence with G108K, V109P, E112G
# [14] = molecular target: T14, PUM1 PUF domain R3-KSD C935K + R936S + Q939D (UniProt Q14671)
# T14 sequence: T1 sequence with G108K, V109S, E112D
# [15] = molecular target: T15, PUM1 PUF domain R3-KSG C935K + R936S + Q939G (UniProt Q14671)
# T15 sequence: T1 sequence with G108K, V109S, E112G
# [16] = molecular target: T16, PUM1 PUF domain R3-KSS C935K + R936S + Q939S (UniProt Q14671)
# T16 sequence: T1 sequence with G108K, V109S, E112S
# [17] = molecular target: T17, PUM1 PUF domain R3-LFG C935L + R936F + Q939G (Homo sapiens) (UniProt Q14671)
# T17 sequence: T1 sequence with G108L, V109F, E112G
# [18] = molecular target: T18, PUM1 PUF domain R3-LFL C935L + R936F + Q939L (UniProt Q14671)
# T18 sequence: T1 sequence with G108L, V109F, E112L
# [19] = molecular target: T19, PUM1 PUF domain R3-LFT C935L + R936F + Q939T (Homo sapiens) (UniProt Q14671)
# T19 sequence: T1 sequence with G108L, V109F, E112T
# [20] = molecular target: T20, PUM1 PUF domain R3-LNG C935L + R936N + Q939G (UniProt Q14671)
# T20 sequence: T1 sequence with G108L, V109N, E112G
# [21] = molecular target: T21, PUM1 PUF domain R3-LNS C935L + R936N + Q939S (UniProt Q14671)
# T21 sequence: T1 sequence with G108L, V109N, E112S
# [22] = molecular target: T22, PUM1 PUF domain R3-LRA C935L + Q939A (UniProt Q14671)
# T22 sequence: T1 sequence with G108L, V109R, E112A
# [23] = molecular target: T23, PUM1 PUF domain R3-LRC C935L + Q939C (UniProt Q14671)
# T23 sequence: T1 sequence with G108L, V109R, E112C
# [24] = molecular target: T24, PUM1 PUF domain R3-LRE C935L + Q939E (UniProt Q14671)
# T24 sequence: T1 sequence with G108L, V109R
# [25] = molecular target: T25, PUM1 PUF domain R3-LRG C935L + Q939G (Homo sapiens) (UniProt Q14671)
# T25 sequence: T1 sequence with G108L, V109R, E112G
# [26] = molecular target: T26, PUM1 PUF domain R3-LRR C935L + Q939R (UniProt Q14671)
# T26 sequence: T1 sequence with G108L, V109R, E112R
# [27] = molecular target: T27, PUM1 PUF domain R3-LRS C935L + Q939S (UniProt Q14671)
# T27 sequence: T1 sequence with G108L, V109R, E112S
# [28] = molecular target: T28, PUM1 PUF domain R3-LRT C935L + Q939T (Homo sapiens) (UniProt Q14671)
# T28 sequence: T1 sequence with G108L, V109R, E112T
sequence,measurement,setting,value
GGCUAGAACUAGUGGAUCCCCCGGCGCCCGGCGGCUCGAGCCCGGGUAAGUGUAACUAGUCUGCAUGCCGCCGGGCGCCAUGCCUGCAGGUCGACUCUAGAAAACAUG,binding signal (log2 enrichment (interaction score)),[1],-4.97
same,binding signal (log2 enrichment (interaction score)),[2],< -7.82
same,binding signal (log2 enrichment (interaction score)),[3],-6.81
same,binding signal (log2 enrichment (interaction score)),[4],-4.62
same,binding signal (log2 enrichment (interaction score)),[5],-6.86
same,binding signal (log2 enrichment (interaction score)),[6],-3.44
same,binding signal (log2 enrichment (interaction score)),[7],0.03
same,binding signal (log2 enrichment (interaction score)),[8],< -8.43
same,binding signal (log2 enrichment (interaction score)),[9],< -8.5
same,binding signal (log2 enrichment (interaction score)),[10],-0.4
same,binding signal (log2 enrichment (interaction score)),[11],-2.27
same,binding signal (log2 enrichment (interaction score)),[12],< -7.31
same,binding signal (log2 enrichment (interaction score)),[13],< -7.81
same,binding signal (log2 enrichment (interaction score)),[14],< -6.4
same,binding signal (log2 enrichment (interaction score)),[15],-4.91
same,binding signal (log2 enrichment (interaction score)),[16],< -8.01
same,binding signal (log2 enrichment (interaction score)),[17],-2.98
same,binding signal (log2 enrichment (interaction score)),[18],-4.94
same,binding signal (log2 enrichment (interaction score)),[19],-3.27
same,binding signal (log2 enrichment (interaction score)),[20],< -8.26
same,binding signal (log2 enrichment (interaction score)),[21],< -8.09
same,binding signal (log2 enrichment (interaction score)),[22],-4.38
same,binding signal (log2 enrichment (interaction score)),[23],-4.79
same,binding signal (log2 enrichment (interaction score)),[24],< -9.8
same,binding signal (log2 enrichment (interaction score)),[25],-3.49
same,binding signal (log2 enrichment (interaction score)),[26],-3.98
same,binding signal (log2 enrichment (interaction score)),[27],< -9.32
same,binding signal (log2 enrichment (interaction score)),[28],-1.51

# Two entries drawn at random from those above, as already listed:
sequence,measurement,setting,value
GGCUAGAACUAGUGGAUCCCCCGGCGCCCGGCGGCUCGAGCCCGGGUAAGUGUAACUAGUCUGCAUGCCGCCGGGCGCCAUGCCUGCAGGUCGACUCUAGAAAACAUG,binding signal (log2 enrichment (interaction score)),[26],-3.98
same,binding signal (log2 enrichment (interaction score)),[19],-3.27
